The test can be described thus: qHTS Assay for Lipid Storage Modulators in Drosophila S3 Cells.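 For cell number change: cells counted by Cell Tracker Red CMTPX staining in the red channel.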 The settings on record: BODIPY lipid droplet fluorescence, 18-24 h; for cell number change: measured here: cell count max response, cells fed with added oleic acid. A digest of the protocol:
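Laser-scanning cytometry quantifies lipid droplet accumulation (500–530 nm total intensity; droplet/cell object ratio) in oleic acid-fed (400 uM added) Drosophila S3 cells treated with a concentration series. 20 uM Triacsin C defined 100% inhibition.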
A general note: In qHTS, concentration-response curves come from the screen itself.

Where [1] appears, read: measured here: cell number channel AC50, cells fed with added oleic acid.
Where [2] appears, read: measured here: lipid fluorescence (Fed channel) AC50, cells fed with added oleic acid.

The other results are listed elsewhere or left out. The main result of the screen is listed elsewhere. These columns were measured beside it and carry no call. The list favours compounds with an active or inconclusive main result. The note in brackets gives the kind of curve behind each potency; many fits are weak.

As for `COc1ccc(C(=O)N2CCCC(C(=O)c3ccccc3OC)C2)cc1OC` (stereo unspecified), the AC50 under setting [1] is 0.461 µM [falling, single point].
As to `COC(=O)c1nnc(-c2ccccc2)nc1OC`, the AC50 under setting [1] is 5.17 µM [rising, single point].
Turning to `Cc1ccc(S(=O)(=O)N2CCCCC2)cc1NC(=O)COC(=O)Cc1cccc2ccccc12`, the cell number change was -6.03%. In addition, the concentration at half-maximal activity (AC50) under setting [2] was 2.06 µM [falling, partial curve].
`COc1ccc2cc3cc(C(=O)NC(C)C)oc3nc2c1`: the AC50 under setting [2] is 2.59 µM [rising, partial curve].
As to `COC(=O)c1ccc(-n2nnnc2SCC(=O)Nc2ccccc2OC)cc1`, the cell number change is 6.23%. For the same compound, the AC50 under setting [2] is 6.51 µM [rising, single point].
With `Cc1c(Cl)cccc1NC(=S)NCc1ccc2c(c1)OCO2`, the cell number change is 38.2%. Under setting [1], the AC50 was 18.4 µM [rising, single point].
Take `CCN(CC)S(=O)(=O)c1ccc(C(=O)NCc2nnc(SCC(=O)OC)n2C)cc1`: the cell number change is -43.6%. The AC50 under setting [1] was 0.0206 µM [falling, full curve]. For the same compound, under setting [2], the half-maximal activity concentration (AC50) is 3.26 µM [falling, partial curve, poor fit].
As for `O=C(O)c1cc([N+](=O)[O-])c(NCc2cccnc2)c([N+](=O)[O-])c1`, the cell number change was -10.7%.
As to `CCc1ccc(C(=O)COC(=O)c2cnc(C)cn2)cc1`, the concentration at half-maximal activity (AC50) under setting [2] is 6.51 µM [falling, single point].
Regarding `CCOc1cc(S(=O)(=O)Nc2ccccn2)ccc1F`, the cell number change was 3.59%.
For `Cc1ccc(OC(=O)c2cncc(Br)c2)c(C)c1`, the cell number change came out at 4.11%.
On to `O=C(CCl)Nc1ccc(N2CCCCCC2)cc1`, for which the cell number change was -33%. Besides, the AC50 under setting [1] was 20.6 µM [falling, single point]. Also, the AC50 under setting [2] was 13 µM [falling, partial curve, poor fit].
Regarding `CCCn1c(CCNC(=O)c2ccco2)nc2ccccc21`, the cell number change is 17%. The concentration at half-maximal activity (AC50) under setting [1] was 7.31 µM [rising, partial curve].
For `Cc1cc2nc(CO)[nH]c2cc1C`, the cell number change was 19.5%. The AC50 under setting [2] was 8.2 µM [rising, single point].
As for `CCN(C(=O)COC(=O)c1ccc(Br)o1)C1CCCCC1`, the cell number change was determined as 37%. The AC50 under setting [1] was 2.31 µM [rising, full curve]. For the same compound, under setting [2], the AC50 is 29.1 µM [rising, single point].
As to `CC1(C)C(=O)CC[C@]2(C)C3C(=O)C=C4[C@H]5C[C@@](C)(C(=O)O)CC[C@]5(C)CC[C@]4(C)[C@]3(C)CC[C@@H]12` (stereo partly specified), the AC50 under setting [2] is 2.91 µM [falling, full curve].
Take `CC(=O)Nc1ccc(C(=O)Nc2cc(C)on2)cc1`: the cell number change was -0.173%. For the same compound, under setting [2], the AC50 is 1.16 µM [rising, full curve, poor fit].
As to `Cc1ccc(S(=O)(=O)N(CCC(=O)O)c2ccccc2)cc1`, the cell number change is -10.1%. Under setting [2], the AC50 is 2.59 µM [falling, partial curve].

Usually AC50 stands for the concentration at which the activity in the assay is half-maximal. Low readings indicate greater potency, high ones weaker potency.
